No constants are given. Whether binding was seen depends on the method and setting. Binding seen in cells or lysates may run through a third protein. Here binding means that the protein was enriched with, or labelled near, the bait; the list need not be complete. Each block holds one binder with its values, some of them ahead of it.
Key:
[1] = biological target: Atrx (mouse (endogenous in MPC11)) (UniProt Q61687); assay: affinity purification with mass spectrometry; immunoprecipitation of the endogenous bait with 5 μg antibody on protein G Dynabeads, 4 h, 4°C, 150 mM NaCl, 0.2% Triton X-100 washes; heavy-labelled MPC11 nuclear extracts against light isotype-control IP; SILAC H/L by mass spectrometry
[2] = biological target: unmodified histone H3 peptide aa1–20 (peptide 1) (UniProt P68431); assay: affinity purification with mass spectrometry; biotinylated histone H3 peptides on NeutrAvidin beads; pooled nuclear and MNase-solubilised chromatin extracts of SILAC-labelled MPC11 cells adjusted to 150 mM NaCl, 4°C; washes with 150 mM KCl, 0.2% Triton X-100; heavy pulldowns against a mixed light reference (super-SILAC); beads alone as control; two replicates; only the target purified

Amino acid sequences for entries named in this document (tags omitted).
UniProt Q61687: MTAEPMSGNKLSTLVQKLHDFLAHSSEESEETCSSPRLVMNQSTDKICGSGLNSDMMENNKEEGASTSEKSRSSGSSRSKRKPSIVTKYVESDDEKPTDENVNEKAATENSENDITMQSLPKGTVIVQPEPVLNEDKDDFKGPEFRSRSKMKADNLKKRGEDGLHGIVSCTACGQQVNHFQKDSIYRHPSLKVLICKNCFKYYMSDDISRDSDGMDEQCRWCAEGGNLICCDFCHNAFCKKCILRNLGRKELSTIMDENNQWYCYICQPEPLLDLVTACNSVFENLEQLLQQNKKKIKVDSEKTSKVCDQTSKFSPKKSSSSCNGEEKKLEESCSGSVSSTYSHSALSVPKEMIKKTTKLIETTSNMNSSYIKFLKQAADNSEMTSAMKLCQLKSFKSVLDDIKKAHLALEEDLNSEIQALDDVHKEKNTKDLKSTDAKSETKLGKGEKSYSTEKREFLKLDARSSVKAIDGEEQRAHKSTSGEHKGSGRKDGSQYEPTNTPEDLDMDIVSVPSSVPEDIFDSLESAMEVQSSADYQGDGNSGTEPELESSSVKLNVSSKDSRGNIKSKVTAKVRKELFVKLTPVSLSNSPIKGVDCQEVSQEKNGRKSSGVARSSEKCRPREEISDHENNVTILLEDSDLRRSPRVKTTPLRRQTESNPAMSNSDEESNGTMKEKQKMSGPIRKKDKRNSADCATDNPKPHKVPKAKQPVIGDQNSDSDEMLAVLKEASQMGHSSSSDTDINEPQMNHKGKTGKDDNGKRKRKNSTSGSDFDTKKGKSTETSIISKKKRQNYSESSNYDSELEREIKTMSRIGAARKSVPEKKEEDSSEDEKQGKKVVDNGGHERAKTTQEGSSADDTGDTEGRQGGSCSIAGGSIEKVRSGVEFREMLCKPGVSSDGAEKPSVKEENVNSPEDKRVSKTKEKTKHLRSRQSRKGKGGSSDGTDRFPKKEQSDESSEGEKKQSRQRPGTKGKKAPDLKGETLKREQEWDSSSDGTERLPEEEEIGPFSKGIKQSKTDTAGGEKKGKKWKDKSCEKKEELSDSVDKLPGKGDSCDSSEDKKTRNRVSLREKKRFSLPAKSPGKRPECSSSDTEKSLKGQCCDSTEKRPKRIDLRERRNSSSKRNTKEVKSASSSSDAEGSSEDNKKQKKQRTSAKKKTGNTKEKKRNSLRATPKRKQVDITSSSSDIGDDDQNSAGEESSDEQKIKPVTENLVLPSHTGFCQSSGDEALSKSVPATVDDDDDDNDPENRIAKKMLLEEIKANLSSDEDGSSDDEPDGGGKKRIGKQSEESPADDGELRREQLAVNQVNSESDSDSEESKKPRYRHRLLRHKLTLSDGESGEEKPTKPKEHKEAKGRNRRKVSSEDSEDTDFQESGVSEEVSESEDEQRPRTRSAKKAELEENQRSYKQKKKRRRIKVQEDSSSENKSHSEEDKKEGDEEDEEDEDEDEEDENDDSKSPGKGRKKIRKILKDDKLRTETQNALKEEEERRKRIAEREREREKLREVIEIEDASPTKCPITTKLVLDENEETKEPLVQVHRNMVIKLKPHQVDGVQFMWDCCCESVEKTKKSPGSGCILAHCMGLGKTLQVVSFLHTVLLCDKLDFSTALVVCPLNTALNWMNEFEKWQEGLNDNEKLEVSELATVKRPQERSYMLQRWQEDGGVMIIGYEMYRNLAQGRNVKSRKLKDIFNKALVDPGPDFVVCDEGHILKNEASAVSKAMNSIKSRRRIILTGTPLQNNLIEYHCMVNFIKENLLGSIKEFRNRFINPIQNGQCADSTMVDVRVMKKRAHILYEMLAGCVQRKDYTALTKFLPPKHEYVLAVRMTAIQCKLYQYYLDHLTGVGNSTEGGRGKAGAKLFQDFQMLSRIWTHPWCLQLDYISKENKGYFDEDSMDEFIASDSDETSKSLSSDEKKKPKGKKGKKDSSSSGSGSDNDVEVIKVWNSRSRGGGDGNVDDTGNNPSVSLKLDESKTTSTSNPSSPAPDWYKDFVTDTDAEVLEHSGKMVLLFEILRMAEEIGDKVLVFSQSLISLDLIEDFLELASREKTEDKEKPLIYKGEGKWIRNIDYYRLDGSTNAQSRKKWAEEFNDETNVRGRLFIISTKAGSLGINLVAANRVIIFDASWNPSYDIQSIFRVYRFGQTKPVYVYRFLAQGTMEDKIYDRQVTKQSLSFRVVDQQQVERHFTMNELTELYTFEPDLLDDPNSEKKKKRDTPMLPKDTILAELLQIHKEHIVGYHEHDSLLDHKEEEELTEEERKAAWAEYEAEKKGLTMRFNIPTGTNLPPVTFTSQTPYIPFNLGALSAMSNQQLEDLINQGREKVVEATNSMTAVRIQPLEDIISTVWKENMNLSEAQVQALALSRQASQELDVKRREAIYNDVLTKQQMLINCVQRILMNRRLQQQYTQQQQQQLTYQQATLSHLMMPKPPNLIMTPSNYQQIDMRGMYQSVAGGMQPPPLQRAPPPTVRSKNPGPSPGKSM

binding [1]: binds
B1: Tif1γ (protein, UniProt Q99PP7 1-1142)
chain: MAENKGGGEAESGGGGSGSAPVTAGAAGPTAQEAEPPLAAVLVEEEEEEGGRAGAEGGAAGPDDGGVAAASSSSAPAASVPAASVGSAVPGGAASTPAPAAAPAPAPAPAPAPAPAPAPAPAPGSSSGPPLGPPASLLDTCAVCQQSLQSRREAEPKLLPCLHSFCLRCLPEPERQLSVPIPGGSNGDVQQVGVIRCPVCRQECRQIDLVDNYFVKDTSEAPSSSDEKSEQVCTSCEDNASAVGFCVECGEWLCKTCIEAHQRVKFTKDHLIRKKEDVSESVGTSGQRPVFCPVHKQEQLKLFCETCDRLTCRDCQLLEHKEHRYQFLEEAFQNQKGAIENLLAKLLEKKNYVHFAATQVQNRIKEVNETNKRVEQEIKVAIFTLINEINKKGKSLLQQLENVTKERQMKLLQQQNDITGLSRQVKHVMNFTNWAIASGSSTALLYSKRLITFQLRHILKARCDPVPAANGAIRFHCDPTFWAKNVVNLGNLVIESKPAPGYTPNVVVGQVPPGTNHISKTPGQINLAQLRLQHMQQQVYAQKHQQLQQMRLQQPPAPIPTTTATTQQHPRQAAPQMLQQQPPRLISVQTMQRGNMNCGAFQAHQMRLAQNAARIPGIPRHSAPQYSMMQPHLQRQHSNPGHAGPFPVVSAHNPINPTSPTTATMANANRGPTSPSVTAIELIPSVTNPENLPSLPDIPPIQLEDAGSSSLDNLLSRYISGSHLPPQPTSTMNPSPGPSALSPGSSGLSNSHTPVRPPSTSSTGSRGSCGSSGRTAEKSAHSFKSDQVKVKQEPGTEEEICSFSGAVKQEKTEDGRRSACMLSSPESSLTPPLSTNLHLESELDTLTGLENHVKTEPTDISESCKQSGLSNLVNGKSPIRNLMHRSARIGGDGNSKDDDPNEDWCAVCQNGGDLLCCEKCPKVFHLTCHVPTLLSFPSGDWICTFCRDIGKPEVEYDCDNMQHSKKGKTAQGLSPVDQRKCERLLLYLYCHELSIEFQEPVPVSIPNYYKIIKKPMDLSTVKKKLQKKHSQHYQIPDDFVADVRLIFKNCERFNEMMKVVQVYADTQEINLKGDSEVAKAGKAVALYFEDKLSEIYSDRTFTPLPEFEQDEDDGEVTEDSDEDFIQPRRKRLKSDERPVHIK

binding [1]: binds
B2: Tif1α (protein, UniProt Q64127 1-1051)
chain: MEVAVEKAAAAAAPAGGPAAAAPSGENEAESRQGPDSESGGEASRLNLLDTCAVCHQNIQSRVPKLLPCLHSFCQRCLPAPQRYLMLTAPALGSAETPPPAPAPAPAPGSPAGGPSPFATQVGVIRCPVCSQECAERHIIDNFFVKDTTEVPSSTVEKSNQVCTSCEDNAEANGFCVECVEWLCKTCIRAHQRVKFTKDHTVRQKEEVSPEAVGVTSQRPVFCPFHKKEQLKLYCETCDKLTCRDCQLLEHKEHRYQFIEEAFQNQKVIIDTLITKLMEKTKYIKYTGNQIQNRIIEINQNQKQVEQDIKVAIFTLMVEINKKGKALLHQLESLAKDHRMKLMQQQQEVAGLSKQLEHVMHFSKWAVSSGSSTALLYSKRLITYRLRHLLRARCDASPVTNTTIQFHCDPSFWAQNIINLGSLVIEDKESQPQMPKQNPVVEQSSQPPGGLPSNQLSKFPTQISLAQLRLQHIQQQVMAQRQQVQRRPAPVGLPNPRMQGPIQQPSISHQHPPPRLINFQNHSPKPNGPVLPPYPQQLRYSPSQNVPRQTTIKPNPLQMAFLAQQAIKQWQISSVQAPPTTASSSSSTPSSPTITSAAGYDGKAFSSPMIDLSAPVGGSYNLPSLPDIDCSSTIMLDNIARKDTGVDHAQPRPPSNRTVQSPNSSVPSPGLAGPVTMTSVHPPIRSPSASSVGSRGSSGSSSKPAGADSTHKVPVVMLEPIRIKQENSGPPENYDFPVVIVKQESDEESRPQNTNYPRSILTSLLLNSSQSSASEETVLRSDAPDSTGDQPGLHQENSSNGKSEWSDASQKSPVHVGETRKEDDPNEDWCAVCQNGGELLCCEKCPKVFHLTCHVPTLTNFPSGEWICTFCRDLSKPEVDYDCDVPSHHSEKRKSEGLTKLTPIDKRKCERLLLFLYCHEMSLAFQDPVPLTVPDYYKIIKNPMDLSTIKKRLQEDYCMYTKPEDFVADFRLIFQNCAEFNEPDSEVANAGIKLESYFEELLKNLYPEKRFPKVEFRHEAEDCKFSDDSDDDFVQPRKKRLKSTEDRQLLK

binding [2]: binds
B3: Sin3a (protein, UniProt Q60520 1-1274)
chain: MKRRLDDQESPVYAAQQRRIPGSTEAFSHQHRVLAPAPPVYEAVSETMQSATGIQYSVAPNYQVSAVPQSSGSHGPAIAAVHSSHHHPTAVQPHGGQVVQSHAHPAPPVAPVQGQQQFQRLKVEDALSYLDQVKLQFGSQPQVYNDFLDIMKEFKSQSIDTPGVISRVSQLFKGHPDLIMGFNTFLPPGYKIEVQTNDMVNVTTPGQVHQIPTHGIQPQPQPPPQHPSQPSSQSAPTPAQPAPQPTAAKVSKPSQLQAHTPASQQTPPLPPYASPRSPPVQPHTPVTISLGTAPSLQNNQPVEFNHAINYVNKIKNRFQGQPDIYKAFLEILHTYQKEQRNAKEAGGNYTPALTEQEVYAQVARLFKNQEDLLSEFGQFLPDANSSVLLSKTTAEKVDSVRNDHGGTVKKPQLNNKPQRPSQNGCQIRRHSGTGATPPVKKKPKLMSLKESSMADASKHGVGTESLFFDKVRKALRSAEAYENFLRCLVIFNQEVISRAELVQLVSPFLGKFPELFNWFKNFLGYKESVHLESFPKERATEGIAMEIDYASCKRLGSSYRALPKSYQQPKCTGRTPLCKEVLNDTWVSFPSWSEDSTFVSSKKTQYEEHIYRCEDERFELDVVLETNLATIRVLEAIQKKLSRLSAEEQAKFRLDNTLGGTSEVIHRKALQRIYADKAADIIDGLRKNPSIAVPIVLKRLKMKEEEWREAQRGFNKVWREQNEKYYLKSLDHQGINFKQNDTKVLRSKSLLNEIESIYDERQEQATEENAGVPVGPHLSLAYEDKQILEDAAALIIHHVKRQTGIQKEDKYKIKQIMHHFIPDLLFAQRGDLSDVEEEEEEEMDVDEATGAPKKHNGVGGSPPKSKLLFSNTAAQKLRGMDEVYNLFYVNNNWYIFMRLHQILCLRLLRICSQAERQIEEENREREWEREVLGIKRDKSDSPAIQLRLKEPMDVDVEDYYPAFLDMVRSLLDGNIDSSQYEDSLREMFTIHAYIAFTMDKLIQSIVRQLQHIVSDEVCVQVTDLYLAENNNGATGGQLNSQTSRSLLESAYQRKAEQLMSDENCFKLMFIQSQGQVQLTVELLDTEEENSDDPVEAERWSDYVERYMSSDTTSPELREHLAQKPVFLPRNLRRIRKCQRGREQQEKEGKEGNSKKTMENVESLDKLECRFKLNSYKMVYVIKSEDYMYRRTALLRAHQSHERVSKRLHQRFQAWVDKWTKEHVPREMAAETSKWLMGEGLEGLVPCTTTCDTETLHFVSINKYRVKYGTVFKAP

From article PMC4330348
